The record followed here is US8691855B2, “Compounds, isomer thereof, or pharmaceutically acceptable salts thereof as vanilloid receptor antagonist and pharmaceutical compositions containing the same” (Amorepacific Corporation, priority 2008, dated 2014).

By UniProt entry, the sequences of proteins in these tests, tags left out.
UniProt O35433, whole entry: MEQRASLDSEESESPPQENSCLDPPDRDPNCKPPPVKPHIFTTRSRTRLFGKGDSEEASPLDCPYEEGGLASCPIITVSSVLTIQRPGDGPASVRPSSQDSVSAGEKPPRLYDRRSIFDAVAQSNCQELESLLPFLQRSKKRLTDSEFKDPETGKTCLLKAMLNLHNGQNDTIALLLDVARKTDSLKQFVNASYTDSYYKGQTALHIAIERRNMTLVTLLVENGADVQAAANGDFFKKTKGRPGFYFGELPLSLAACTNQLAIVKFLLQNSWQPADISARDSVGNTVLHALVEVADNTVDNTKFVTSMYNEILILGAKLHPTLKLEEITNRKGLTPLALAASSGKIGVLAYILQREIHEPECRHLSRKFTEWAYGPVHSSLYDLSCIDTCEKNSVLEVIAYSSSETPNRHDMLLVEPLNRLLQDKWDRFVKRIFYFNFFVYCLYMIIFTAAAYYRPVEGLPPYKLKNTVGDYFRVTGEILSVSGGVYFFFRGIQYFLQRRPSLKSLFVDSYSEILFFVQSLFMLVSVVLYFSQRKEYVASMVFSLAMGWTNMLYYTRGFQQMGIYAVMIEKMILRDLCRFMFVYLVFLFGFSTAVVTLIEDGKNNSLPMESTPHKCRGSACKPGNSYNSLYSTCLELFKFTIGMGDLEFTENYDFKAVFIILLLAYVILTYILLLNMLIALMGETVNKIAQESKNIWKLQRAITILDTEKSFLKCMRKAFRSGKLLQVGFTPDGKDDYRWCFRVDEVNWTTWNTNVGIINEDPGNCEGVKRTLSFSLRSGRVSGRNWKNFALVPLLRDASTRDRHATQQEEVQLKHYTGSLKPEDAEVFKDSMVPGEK

The structures appear in SMILES notation.

The assay has as its target T1, vanilloid receptor (Rattus norvegicus, UniProt O35433).
T1 construct: DRG nerve cells from the primary culture of 2 days were equilibrated; endogenous in cells; host or cells: primary culture of dorsal root ganglion neurons from neonatal SD rats
Description: 45Ca influx test (antagonist calcium uptake test) in rat DRG neurons stimulated with capsaicin. Format: cell-based. The following applies: DRG neuron, neonatal SD rat DRG neurons, capsaicin 0.5 μM, read-out: Antagonist Calcium Uptake Test, percent inhibition of capsaicin response. As for the experimental part: 1) Separation of spinal dorsal root ganglia (DRG) in newborn rats and primary culture thereof
Neonatal (2-3 clay old or younger than 2-3 day old) SD rats were put in ice for 5 minutes to anesthetize and disinfected with 70% ethanol. DRG of all part of spinal cord were dissected (Wood et al., 1988, J. Neurosci. 8, pp 3208-3220) and collected in DME/F12 medium to which 1.2 g/l sodium bicarbonate and 50 mg/l gentamycin were added. The DRG were incubated sequentially at 37° C. for 30 mins in 200 U/ml collagenase and 2.5 mg/ml trypsin, separately. The ganglia were washed twice with DME/F12 medium supplemented with 10% horse serum, triturated through a fire-polished Pasteur pipette, filtered through Nitex 80 membrane to obtain single cell suspension and the suspension was washed once more. This was subjected to centrifugation, then resuspended in cell culture medium at certain level of cell density. […]
DRG nerve cells from the primary culture of 2 days were equilibrated by washing 4 times with HEPES (10 mM, pH 7.4)-buffered Ca^2+, Mg^2+-free HBSS (H-HBSS). […] After the addition of scintillation cocktail of into each well, the amount of ^45Ca influx into neuron was measured by counting radioactivity. […]

Turning to `C[C@@H](NC(=O)c1coc(-c2cc(C3CC3)cc(C3CC3)c2)n1)c1cc(F)c(NS(C)(=O)=O)c(F)c1` [Example 106, 2-(3,5-Dicyclopropyl-phenyl)-oxazole-4-carboxylic acid [1-(3,5-difluoro-4-methanesulfonylamino-phenyl)-ethyl]-amide], the inhibition at 10 µM is 82%.
